# Results are given in words; binding and its absence hold for the method and conditions named. Some entries that bind do so weakly or less than the wild type.
# Sequences of proteins named here, by UniProt entry; tags and fusion partners are left off. A change or cut given only in a name is not applied to a line headed by its entry.
# UniProt P21860: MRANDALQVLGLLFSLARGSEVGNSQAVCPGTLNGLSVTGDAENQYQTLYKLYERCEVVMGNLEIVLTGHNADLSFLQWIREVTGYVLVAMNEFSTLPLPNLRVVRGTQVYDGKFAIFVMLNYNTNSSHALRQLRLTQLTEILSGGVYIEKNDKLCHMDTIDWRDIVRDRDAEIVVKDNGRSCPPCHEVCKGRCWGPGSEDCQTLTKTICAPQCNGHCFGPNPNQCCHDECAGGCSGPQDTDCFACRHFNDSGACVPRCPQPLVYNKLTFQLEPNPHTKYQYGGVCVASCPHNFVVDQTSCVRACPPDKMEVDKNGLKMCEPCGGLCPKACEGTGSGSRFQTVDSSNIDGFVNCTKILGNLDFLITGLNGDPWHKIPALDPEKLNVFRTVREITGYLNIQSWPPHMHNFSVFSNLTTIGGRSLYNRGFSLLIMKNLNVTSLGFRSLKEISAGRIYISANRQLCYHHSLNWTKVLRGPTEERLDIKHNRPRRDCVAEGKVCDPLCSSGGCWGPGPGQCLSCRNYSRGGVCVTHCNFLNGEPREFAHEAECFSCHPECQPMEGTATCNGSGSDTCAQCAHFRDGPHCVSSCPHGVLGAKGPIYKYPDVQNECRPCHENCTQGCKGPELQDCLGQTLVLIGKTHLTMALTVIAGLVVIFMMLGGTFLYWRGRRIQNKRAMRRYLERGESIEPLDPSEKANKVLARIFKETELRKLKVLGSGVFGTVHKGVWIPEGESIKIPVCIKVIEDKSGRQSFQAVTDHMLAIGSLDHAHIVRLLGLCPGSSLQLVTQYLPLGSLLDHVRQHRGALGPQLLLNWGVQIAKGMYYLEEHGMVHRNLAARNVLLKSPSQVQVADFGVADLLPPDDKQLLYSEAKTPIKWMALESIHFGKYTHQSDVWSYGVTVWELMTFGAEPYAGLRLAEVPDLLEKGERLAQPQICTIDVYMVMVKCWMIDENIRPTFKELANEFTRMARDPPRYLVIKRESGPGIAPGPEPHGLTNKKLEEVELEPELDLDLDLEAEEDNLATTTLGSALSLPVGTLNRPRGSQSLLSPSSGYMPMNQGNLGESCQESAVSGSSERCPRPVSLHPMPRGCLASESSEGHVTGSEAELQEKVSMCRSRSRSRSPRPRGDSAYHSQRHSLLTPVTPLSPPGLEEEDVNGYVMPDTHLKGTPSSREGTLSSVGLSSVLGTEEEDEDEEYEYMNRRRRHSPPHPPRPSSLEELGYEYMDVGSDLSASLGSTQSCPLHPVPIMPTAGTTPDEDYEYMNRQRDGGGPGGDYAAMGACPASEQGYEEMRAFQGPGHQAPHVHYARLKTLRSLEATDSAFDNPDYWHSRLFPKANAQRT
# What was measured:
# [1] = target: rhesus ERBB3 on transiently transfected HEK-293 cells (rhesus monkey (Macaca mulatta)); assay: flow cytometry, rhesus ERBB3-transfected HEK-293
# [2] = target: human ERBB3 on transiently transfected HEK-293 cells (human) (UniProt P21860); assay: flow cytometry, human ERBB3-transfected HEK-293 cells, IgG1null titrated
# [3] = target: human ERBB3 human Fc tagged recombinant protein (human) (UniProt P21860); assay: direct binding ELISA on coated human ERBB3-Fc, IgG1null titrated
# [4] = target: rhesus ERBB3 on transiently transfected HEK-293 cells (rhesus monkey (Macaca mulatta)); assay: flow cytometry, rhesus ERBB3-transfected HEK-293 cells, IgG1null titrated
# [5] = target: rhesus monkey ERBB3 human Fc tagged recombinant protein (rhesus monkey (Macaca mulatta)); assay: direct titration ELISA on rhesus ERBB3-Fc
# [6] = target: T1, human ERBB3 His tagged, monomeric (human, UniProt P21860 20-643, biotinylated in the Alphascreen assays (sites not given)); assay: Alphascreen competition in solution, competitor h24C05 IgG1null, biotinylated human ERBB3-His
# T1 construct: Used unbiotinylated as Biacore analyte and biotinylated in Alphascreen; treated as one molecule; also called human ERBB3-His (Acrobiosystems); biotinylated monomeric human ERBB3
# Experimental: The AlphaScreen assay (Perkin Elmer) was performed in a 25 μl final volume in 384-well white microtiter plates (Greiner). The reaction buffer contained 1×PBS pH 7.3 (Oxoid, Cat. nr. BR0014G) and 0.05% (v/v) Tween® 20 (Sigma, Cat. nr. P9416). Purified IgG samples were titrated in three fold serial dilutions starting at 100 nM final concentration and incubated with biotinylated human ERBB3-His (Acrobiosystems) at 1 nM final concentration for 20 minutes at room temperature. The parental IgG and the anti-human IgG1 Acceptor beads at were added and the mix was incubated for 1 hour at room temperature. Followed by addition of the Streptavidin Donor beads and incubation for 30 minutes at room temperature. The emission of light was measured in the EnVision multilabel plate reader (Perkin Elmer) and analysed using the EnVision manager software. Values were reported as Counts Per Second (CPS) and corrected for crosstalk.
# [7] = target: rhesus monkey ERBB3 human Fc tagged recombinant protein (rhesus monkey (Macaca mulatta)); assay: direct binding ELISA on coated rhesus ERBB3-Fc, IgG1null titrated
# [8] = target: human ERBB3 human Fc tagged recombinant protein (human) (UniProt P21860); assay: direct titration ELISA on human ERBB3-Fc
# [9] = target: human ERBB3 on transiently transfected HEK-293 cells (human) (UniProt P21860); assay: flow cytometry, human ERBB3-transfected HEK-293
Binder,binding [1],binding [2],binding [3],binding [4],binding [5],binding [6],binding [7],binding [8],binding [9]
"MH1 IgG1null (antibody, V domains shown, Designer (Maximally Humanized) clone; Human IgG1null and human Ckappa) VH: QVQLVESGGGLVKPGGSLRLSCAASGFTFSDYGMSWIRQAPGKGLEWVSTISDSGSYIYYADSVKGRFTISRDNAKNSLYLQMNSLRAEDTAVYYCARELGDYDGFDYWGQGTLVTVSS VL: DIQMTQSPSSLSASVGDRVTITCRASQSISSYLSWYQQKPGKAPKLLIYAASSLQSGVPSRFSGSGSGTDFTLTISSLQPEDFATYYCLQYDSTPLTFGGGTKVEIK",binds,binds,binds,binds,binds,binds,binds,binds,binds
"MH2 IgG1null (antibody, V domains shown, Designer (Maximally Humanized) clone; Human IgG1null and human Ckappa) VH: QVQLVESGGGLVKPGGSLRLSCAASGFTFSDYGMSWIRQAPGKGLEWVSTISDSGSYIYYADSVKGRFTISRDNAKNSLYLQMNSLRAEDTAVYYCAREWGDYDGFDFWGQGTLVTVSS VL: DIQMTQSPSSLSASVGDRVTITCRASQSISSYLSWYQQKPGKAPKLLIYAASSLQSGVPSRFSGSGSGTDFTLTISSLQPEDFATYYCLQYDSTPLTFGGGTKVEIK",binds,binds,binds,binds,binds,binds,binds,binds,binds
"MH3 IgG1null (antibody, V domains shown, Designer (Maximally Humanized) clone; Human IgG1null and human Ckappa) VH: QVQLVESGGGLVKPGGSLRLSCAASGFTFSDYSMSWIRQAPGKGLEWVSTISDSGSTIYYADSVKGRFTISRDNAKNSLYLQMNSLRAEDTAVYYCAREWGDYDGFDFWGQGTLVTVSS VL: DIQMTQSPSSLSASVGDRVTITCRASQSISSYLSWYQQKPGKAPKLLIYAASSLQSGVPSRFSGSGSGTDFTLTISSLQPEDFATYYCLQYDSTPLTFGGGTKVEIK",binds,binds,binds,binds,binds,binds,binds,binds,binds

# Other lines, results leading:
binding [1],binding [2],binding [3],binding [4],binding [5],binding [6],binding [7],binding [8],binding [9],Binder
binds,binds,binds,binds,binds,binds,binds,binds,binds,"MH4 IgG1null (antibody, V domains shown, Designer (Maximally Humanized) clone; Human IgG1null and human Ckappa) VH: QVQLVESGGGLVKPGGSLRLSCAASGFTFSDYGMSWIRQAPGKGLEWVSTISDSGSYIYYADSVKGRFTISRDNAKNSLYLQMNSLRAEDTAVYYCAREWGDYDGFDEWGQGTLVTVSS VL: DIQMTQSPSSLSASVGDRVTITCRASQSISSYLSWYQQKPGKAPKLLIYAASSLQSGVPSRFSGSGSGTDFTLTISSLQPEDFATYYCLQYDSTPLTFGGGTKVEIK"
binds,binds,binds,binds,binds,binds,binds,binds,binds,"MH5 IgG1null (antibody, V domains shown, Designer (Maximally Humanized) clone; Human IgG1null and human Ckappa) VH: QVQLVESGGGLVKPGGSLRLSCAASGFTFSDYGMSWIRQAPGKGLEWVSTISDSGSTIYYADSVKGRFTISRDNAKNSLYLQMNSLRAEDTAVYYCAREYGDYDGFDYWGQGTLVTVSS VL: DIQMTQSPSSLSASVGDRVTITCRASQSISSYLSWYQQKPGKAPKLLIYAASSLQSGVPSRFSGSGSGTDFTLTISSLQPEDFATYYCLQYDSTPLTFGGGTKVEIK"
binds,binds,binds,binds,binds,binds,binds,binds,binds,"TTP IgG1null (antibody, V domains shown, Designer clone; Human IgG1null and human Ckappa; also called Total Theoretically Possible clone) VH: QVQLVESGGGLVKPGGSLRLSCAASGFTFSDYGMSWIRQAPGKGLEWVSTISDSGSTIYYADSVKGRFTISRDNAKNSLYLQMNSLRAEDTAVYYCAREYGDYDGFDYWGQGTLVTVSS VL: DIQMTQSPSSLSASVGDRVTITCRASQSISSYLNWYQQKPGKAPKLLIYAASSLQSGVPSRFSGSGSGTDFTLTISSLQPEDFATYYCLQYDSTPLTFGGGTKVEIK"

# — patent US20200339702A1 (ULTRAHUMAN THIRTEEN, published 2020)
